Holding throughout (test): co-IP; HEK 293T cells transiently transfected with tagged constructs (or endogenous partner); lysis in 50 mM Tris-HCl pH 8.0, 150 mM NaCl, 10% glycerol, 1 mM EDTA, 1% DDM or 0.5% NP-40; anti-Flag M2, anti-c-Myc or anti-HA magnetic beads; Western blot; in Figure 6D with or without overexpressed TMEM132A
(A western blot detects proteins with antibodies after separation by electrophoresis.)

For test [1], the target named is T1, HA-tagged full-length WLS (FL WLS-HA) (mouse) (UniProt Q6DID7).
T1 sequence: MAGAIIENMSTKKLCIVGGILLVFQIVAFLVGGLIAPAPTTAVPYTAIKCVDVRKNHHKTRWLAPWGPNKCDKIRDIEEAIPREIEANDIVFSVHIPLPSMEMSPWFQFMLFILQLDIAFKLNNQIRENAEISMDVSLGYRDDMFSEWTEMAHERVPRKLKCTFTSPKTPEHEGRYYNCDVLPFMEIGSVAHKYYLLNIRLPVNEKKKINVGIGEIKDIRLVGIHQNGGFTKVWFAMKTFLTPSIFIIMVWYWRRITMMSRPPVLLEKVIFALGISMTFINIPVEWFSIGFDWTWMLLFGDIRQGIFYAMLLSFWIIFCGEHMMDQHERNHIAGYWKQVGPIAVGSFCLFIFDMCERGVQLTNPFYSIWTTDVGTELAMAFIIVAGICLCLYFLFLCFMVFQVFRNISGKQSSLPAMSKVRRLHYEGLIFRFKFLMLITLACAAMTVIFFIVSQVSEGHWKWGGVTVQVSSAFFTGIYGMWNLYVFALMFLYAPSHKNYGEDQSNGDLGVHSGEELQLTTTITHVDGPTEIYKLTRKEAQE

Test [2] has as its target T2, Flag-tagged full-length TMEM132A (FL T132A-Flag) (mouse) (UniProt Q922P8).
T2 sequence: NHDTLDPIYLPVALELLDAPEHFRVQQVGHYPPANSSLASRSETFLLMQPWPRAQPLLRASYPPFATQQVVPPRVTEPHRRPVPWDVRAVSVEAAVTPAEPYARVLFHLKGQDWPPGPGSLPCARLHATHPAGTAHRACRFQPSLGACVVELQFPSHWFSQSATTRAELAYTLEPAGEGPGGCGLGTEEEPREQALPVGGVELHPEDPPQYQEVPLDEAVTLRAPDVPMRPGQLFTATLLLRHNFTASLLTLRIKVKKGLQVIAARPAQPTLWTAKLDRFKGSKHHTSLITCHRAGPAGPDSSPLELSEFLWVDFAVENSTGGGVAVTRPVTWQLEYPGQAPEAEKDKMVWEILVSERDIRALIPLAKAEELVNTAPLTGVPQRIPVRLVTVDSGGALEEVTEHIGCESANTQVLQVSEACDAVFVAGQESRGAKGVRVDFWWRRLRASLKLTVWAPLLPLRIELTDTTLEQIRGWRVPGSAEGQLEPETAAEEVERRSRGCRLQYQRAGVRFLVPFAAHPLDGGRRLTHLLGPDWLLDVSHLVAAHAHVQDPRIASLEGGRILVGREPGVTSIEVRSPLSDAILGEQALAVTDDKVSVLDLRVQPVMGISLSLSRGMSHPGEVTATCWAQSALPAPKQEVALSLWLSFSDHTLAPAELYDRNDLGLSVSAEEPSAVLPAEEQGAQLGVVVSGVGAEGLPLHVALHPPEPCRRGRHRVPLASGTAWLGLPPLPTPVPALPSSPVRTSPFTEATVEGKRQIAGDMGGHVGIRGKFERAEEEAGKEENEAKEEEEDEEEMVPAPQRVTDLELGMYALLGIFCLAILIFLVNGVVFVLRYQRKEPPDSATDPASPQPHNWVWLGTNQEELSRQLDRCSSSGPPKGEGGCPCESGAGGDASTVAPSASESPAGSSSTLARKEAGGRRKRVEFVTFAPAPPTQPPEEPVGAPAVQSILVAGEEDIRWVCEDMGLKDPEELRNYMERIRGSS

Test [3] addresses T3, FL Myc-tagged WLS (WLS-Myc) (mouse) (UniProt Q6DID7).
T3 sequence: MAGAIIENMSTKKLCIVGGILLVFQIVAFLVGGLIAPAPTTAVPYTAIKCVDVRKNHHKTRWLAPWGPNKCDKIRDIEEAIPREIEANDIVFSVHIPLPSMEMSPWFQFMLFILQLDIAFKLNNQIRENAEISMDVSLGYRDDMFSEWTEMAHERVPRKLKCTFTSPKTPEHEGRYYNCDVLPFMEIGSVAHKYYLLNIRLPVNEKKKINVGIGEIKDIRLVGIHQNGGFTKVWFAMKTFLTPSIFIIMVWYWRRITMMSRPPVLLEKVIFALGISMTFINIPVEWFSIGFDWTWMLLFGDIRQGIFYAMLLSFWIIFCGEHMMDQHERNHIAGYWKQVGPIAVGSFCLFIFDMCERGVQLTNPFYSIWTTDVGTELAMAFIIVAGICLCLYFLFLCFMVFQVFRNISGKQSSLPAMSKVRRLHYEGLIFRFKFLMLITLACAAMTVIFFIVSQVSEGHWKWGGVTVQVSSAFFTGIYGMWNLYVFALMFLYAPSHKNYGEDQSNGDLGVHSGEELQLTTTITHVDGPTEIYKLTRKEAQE

These are yes or no findings as the source states them, for the method shown. Binding seen in cells or lysates may run through a third protein. Some binding calls cover weakened binding; strength is not graded here. Tags and fused reporters may be left off the sequences shown.

These results are taken from PMC7726220.

B1: endogenous TMEM132A of HEK 293T cells (protein, UniProt Q24JP5 36-1023)
chain: CGQAPLDPVYLPAALELLDAPEHFRVQQVGHYPPANSSLSSRSETFLLLQPWPRAQPLLRASYPPFATQQVVPPRVTEPHQRPVPWDVRAVSVEAAVTPAEPYARVLFHLKGQDWPPGSGSLPCARLHATHPAGTAHQACRFQPSLGACVVELELPSHWFSQASTTRAELAYTLEPAAEGPGGCGSGEENDPGEQALPVGGVELRPADPPQYQEVPLDEAVTLRVPDMPVRPGQLFSATLLLRHNFTASLLTLRIKVKKGLHVTAARPAQPTLWTAKLDRFKGSRHHTTLITCHRAGLTEPDSSPLELSEFLWVDFVVENSTGGGVAVTRPVTWQLEYPGQAPEAEKDKMVWEILVSERDIRALIPLAKAEELVNTAPLTGVPQHVPVRLVTVDGGGALVEVTEHVGCESANTQVLQVSEACDAVFVAGKESRGARGVRVDFWWRRLRASLRLTVWAPLLPLRIELTDTTLEQVRGWRVPGPAEGPAEPAAEASDEAERRARGCHLQYQRAGVRFLAPFAAHPLDGGRRLTHLLGPDWLLDVSHLVAPHARVLDSRVASLEGGRVVVGREPGVTSIEVRSPLSDSILGEQALAVTDDKVSVLELRVQPVMGISLTLSRGTAHPGEVTATCWAQSALPAPKQEVALSLWLSFSDHTVAPAELYDRRDLGLSVSAEEPGAILPAEEQGAQLGVVVSGAGAEGLPLHVALHPPEPCRRGRHRVPLASGTAWLGLPPASTPAPALPSSPAWSPPATEATMGGKRQVAGSVGGNTGVRGKFERAEEEARKEETEAREEEEEEEEEMVPAPQHVTELELGMYALLGVFCVAIFIFLVNGVVFVLRYQRKEPPDSATDPTSPQPHNWVWLGTDQEELSRQLDRQSPGPPKGEGSCPCESGGGGEAPTLAPGPPGGTTSSSSTLARKEAGGRRKRVEFVTFAPAPPAQSPEEPVGAPAVQSILVAGEEDIRWVCEDMGLKDPEELRNYMERIRGSS
For B1, the binding result in test [1] is on record as “binds”.

B2: WLS-HA truncation aa 1-264 (domain or fragment, UniProt Q6DID7-1 1-264)
chain: MAGAIIENMSTKKLCIVGGILLVFQIVAFLVGGLIAPAPTTAVPYTAIKCVDVRKNHHKTRWLAPWGPNKCDKIRDIEEAIPREIEANDIVFSVHIPLPSMEMSPWFQFMLFILQLDIAFKLNNQIRENAEISMDVSLGYRDDMFSEWTEMAHERVPRKLKCTFTSPKTPEHEGRYYNCDVLPFMEIGSVAHKYYLLNIRLPVNEKKKINVGIGEIKDIRLVGIHQNGGFTKVWFAMKTFLTPSIFIIMVWYWRRITMMSRPPV
Take B2: the binding entry in test [2] is “binds”.

B3: WLS-HA truncation aa 429-541 (domain or fragment, UniProt Q6DID7-1 429-541)
chain: IFRFKFLMLITLACAAMTVIFFIVSQVSEGHWKWGGVTVQVSSAFFTGIYGMWNLYVFALMFLYAPSHKNYGEDQSNGDLGVHSGEELQLTTTITHVDGPTEIYKLTRKEAQE
In the case of B3, in test [2], the binding result is listed as “binds weakly”.

B4: Flag-tagged full-length TMEM132A (FL T132A-Flag) (protein, UniProt Q922P8 33-1018)
chain: NHDTLDPIYLPVALELLDAPEHFRVQQVGHYPPANSSLASRSETFLLMQPWPRAQPLLRASYPPFATQQVVPPRVTEPHRRPVPWDVRAVSVEAAVTPAEPYARVLFHLKGQDWPPGPGSLPCARLHATHPAGTAHRACRFQPSLGACVVELQFPSHWFSQSATTRAELAYTLEPAGEGPGGCGLGTEEEPREQALPVGGVELHPEDPPQYQEVPLDEAVTLRAPDVPMRPGQLFTATLLLRHNFTASLLTLRIKVKKGLQVIAARPAQPTLWTAKLDRFKGSKHHTSLITCHRAGPAGPDSSPLELSEFLWVDFAVENSTGGGVAVTRPVTWQLEYPGQAPEAEKDKMVWEILVSERDIRALIPLAKAEELVNTAPLTGVPQRIPVRLVTVDSGGALEEVTEHIGCESANTQVLQVSEACDAVFVAGQESRGAKGVRVDFWWRRLRASLKLTVWAPLLPLRIELTDTTLEQIRGWRVPGSAEGQLEPETAAEEVERRSRGCRLQYQRAGVRFLVPFAAHPLDGGRRLTHLLGPDWLLDVSHLVAAHAHVQDPRIASLEGGRILVGREPGVTSIEVRSPLSDAILGEQALAVTDDKVSVLDLRVQPVMGISLSLSRGMSHPGEVTATCWAQSALPAPKQEVALSLWLSFSDHTLAPAELYDRNDLGLSVSAEEPSAVLPAEEQGAQLGVVVSGVGAEGLPLHVALHPPEPCRRGRHRVPLASGTAWLGLPPLPTPVPALPSSPVRTSPFTEATVEGKRQIAGDMGGHVGIRGKFERAEEEAGKEENEAKEEEEDEEEMVPAPQRVTDLELGMYALLGIFCLAILIFLVNGVVFVLRYQRKEPPDSATDPASPQPHNWVWLGTNQEELSRQLDRCSSSGPPKGEGGCPCESGAGGDASTVAPSASESPAGSSSTLARKEAGGRRKRVEFVTFAPAPPTQPPEEPVGAPAVQSILVAGEEDIRWVCEDMGLKDPEELRNYMERIRGSS
Consider B4, for which the binding entry in test [1] and in test [3] was “binds” in each case.

B5: WLS-HA truncation aa 332-428 (domain or fragment, UniProt Q6DID7-1 332-428)
chain: IAGYWKQVGPIAVGSFCLFIFDMCERGVQLTNPFYSIWTTDVGTELAMAFIIVAGICLCLYFLFLCFMVFQVFRNISGKQSSLPAMSKVRRLHYEGL
Turning to B5, the binding result in test [2] was “binds weakly”.

B6: endogenous WLS of HEK 293T cells (protein, UniProt Q5T9L3 1-541)
chain: MAGAIIENMSTKKLCIVGGILLVFQIIAFLVGGLIAPGPTTAVSYMSVKCVDARKNHHKTKWFVPWGPNHCDKIRDIEEAIPREIEANDIVFSVHIPLPHMEMSPWFQFMLFILQLDIAFKLNNQIRENAEVSMDVSLAYRDDAFAEWTEMAHERVPRKLKCTFTSPKTPEHEGRYYECDVLPFMEIGSVAHKFYLLNIRLPVNEKKKINVGIGEIKDIRLVGIHQNGGFTKVWFAMKTFLTPSIFIIMVWYWRRITMMSRPPVLLEKVIFALGISMTFINIPVEWFSIGFDWTWMLLFGDIRQGIFYAMLLSFWIIFCGEHMMDQHERNHIAGYWKQVGPIAVGSFCLFIFDMCERGVQLTNPFYSIWTTDIGTELAMAFIIVAGICLCLYFLFLCFMVFQVFRNISGKQSSLPAMSKVRRLHYEGLIFRFKFLMLITLACAAMTVIFFIVSQVTEGHWKWGGVTVQVNSAFFTGIYGMWNLYVFALMFLYAPSHKNYGEDQSNGDLGVHSGEELQLTTTITHVDGPTEIYKLTRKEAQE
In the case of B6, the binding entry in test [2] is on record as “binds”.

B7: HA-tagged WNT5A (FL WNT5A-HA) (ligand, UniProt P22725-1 62-380)
chain: IIGAQPLCSQLAGLSQGQKKLCHLYQDHMQYIGEGAKTGIKECQYQFRHRRWNCSTVDNTSVFGRVMQIGSRETAFTYAVSAAGVVNAMSRACREGELSTCGCSRAARPKDLPRDWLWGGCGDNIDYGYRFAKEFVDARERERIHAKGSYESARILMNLHNNEAGRRTVYNLADVACKCHGVSGSCSLKTCWLQLADFRKVGDALKEKYDSAAAMRLNSRGKLVQVNSRFNSPTTQDLVYIDPSPDYCVRNESTGSLGTQGRLCNKTSEGMDGCELMCCGRGYDQFKTVQTERCHCKFHWCCYVKCKKCTEIVDQFVCK
In the case of B7, the binding result in test [2] and in test [3] was “binds” throughout.
